According to US20260008852A1:
Results are given in words; binding and its absence hold for the method and conditions named. A result given as binding can be weak or reduced; the word gives no strength.

Molecular target: His-tagged cynomolgus monkey B7-H3 (cynomolgus monkey)
Assay: ELISA, coated His-tagged antigen

B1: 40511p1.1.A1 (scFv, V domains shown)
VH: DVQLVESGGGVVRPGESLRLSCAASGFTFSNYAMNWVRQAPGEGLEWVSRINYKGYNITYYADSVKGRFTISRDNSKNTLYLQMNSLRAEDTAVYYCAKSGSNSNNFFDYWGLGTLVTVSS
VL: EIVLTQSPGTLSVSPGERATLSCRASQSVNSKLAWYQQRPGQAPRLLIYDASSRATGIPDRFSGSGSGTDFTLTISRLEPEDFAVYYCQQYKNWPPLTFGGGTKVEIK
  binding: binds

B2: 40511p1.1.D6 (scFv, V domains shown)
VH: DVQLVESGGGVVRPGESLTLSCAASGFTINSYAVSWVRQAPGEGLEWVSGISGSGVRYYADSVKGRFTISRDNSNNTLYLQMNSLRAEDTAVYYCARSNKVTWNNFFDYWGLGTLVTVSS
VL: EVVLTQSPGTLTLSPGERATLSCRASRSILTSLAWYQQKPGQAPRLLIYNTVTRATGIPARFSGSGSGTEFTLTINSLQSEDFAVYYCQQYYDWPPLTFGGGTKVEIK
  binding: binds

B3: 40511p1.1.D8 (scFv, V domains shown)
VH: DVQLVESGGGVVRPGESLRLSCAASGFTFSSYAMSWVRQAPGEGLEWVSSISGSGGSTLYADSVKGRFTISRDSSNNSLYLQMNSLRAEDTAVYYCAKARNNFFDYWGLGTLVTVSS
VL: EIVLTQSPGTLTLSPGERATLSCRASRSILTSLAWYQQRPGQAPRLLIYGANSRATGIPDRFSGSGSGTEFTLTISSLQSEDFAVYYCQQYYDWLTITFGGGTKVEIK
  binding: binds

B4: 40511p1.1.G1 (scFv, V domains shown)
VH: DVQLVESGGGVVRPGESLRLSCAASGFTFSSYAESWVRQAPGEGLEWVSIISGSGGNTFYADSVKGRFTISRDNSKNTLYLQMNSLRAEDTAVYYCARFAYGFFDYWGLGTLVTVSS
VL: EIVLTQSPGTLSVSPGEGATLSCRASQTVGSKLAWYQQKPGQPPSLLIYDASTRATGIPDRFSGSGSGTDFTLTISSLQSEDFAVYYCQQYRNWPPLTFGGGTKVEIK
  binding: binds

B5: 40511p1.1.G3 (scFv, V domains shown)
VH: DVQLVESGGGVVRPGESLTLSCAASGFTINSYAVSWVRQAPGEGLEWVSGISGSGVRYYADSVKGRFTISRDDSNNTLYLQMNSLRAEDTAVYYCARSNKVTWNNFFDYWGLGTLVTVSS
VL: EVVLTQSPGTLTLSPGERATLSCRASRSILTSLAWYQQKPGQAPRLLIYNTVTRATGIPARFSGSGSGTEFTLTINSLQSEDFAVYYCQQYYDWPPLTFGGGTKVEIK
  binding: binds

B6: 40511p1.1.H10 (scFv, V domains shown)
VH: DVQLVESGGGVVRPGESLRLSCAASGFTFSNYAMNWVRQAPGEGLEWVSRINYKGYNITYYADSVKGRFTISRDNSKNTLYLQMNSLRAEDTAVYYCAKSGSNSNNFFDYWGLGTLVTVSS
VL: EIVLTQSPGNLSLSPGERATLSCRASQSVGSQLGWYQQKPGQAPRLLIYGASTRATGIPDRFSGSGSGTEFALTISSLQSEDFAVYYCQQYYDWPPLTFGGGTKVEIK
  binding: binds

B7: 40511p1.1.H5 (scFv, V domains shown)
VH: DVQLVESGGGVVRPGESLRLSCAASGFTFSNYAMNWVRQAPGEGLEWVSRINYKGYNITYYADSVKGRFTISRDNSKNTLYLQMNSLRAEDTAVYYCAKSGSNSNNFFDYWGLGTLVTVSS
VL: EIVLTQSPGTLSLSPGERATLSCRASQSIRSDLAWYQQKPGQAPRLLIYGAASRATGIPARFSGSGSGTEFTLTISSLQSGDFAVYYCQQYNSWPPLTFGGGTKVEIK
  binding: binds

B8: 40511p1.2.A12 (scFv, V domains shown)
VH: DVQLVESGGGVVRPGESLRLSCAASGFTFSSYAESWVRQAPGEGLEWVSIISGSGGNTFYADSVKGRFTISRDNSKNTLYLQMNSLRAEDTAVYYCARFAYGFFDYWGLGTLVTVSS
VL: EIVLTQSPGTLSVSPGERATLSCRASQTVGSKLAWYQQKPGQPPSLLIYDASTRATGIPDRFSGSGSGTDFTLTISSLQSEDFAVYYCQQYRNWPPLTFGGGTKVEIK
  binding: binds

B9: 40511p1.2.A4 (scFv, V domains shown)
VH: DVQLVESGGGVVRPGESLRLSCAASGFTFSSYAESWVRQAPGEGLEWVSIISGSGGNTFYADSVKGRFTISRDNSKNTLYLQMNSLRAEDTAVYYCARFAYGFFDYWGLGTLVTVSS
VL: EIVLTQSPGTLSVSPGERATLSCRASQTVGSKLAWYQQKPGQAPRLLIYDASTRATDIPDRFSGSGSGTDFTLTISSLQSEDFAVYYCQQYRNWPPLTFGGGTKVEIK
  binding: binds

B10: 40511p1.2.B5 (scFv, V domains shown)
VH: DVQLVESGGGVVRPGESLRLSCAASGFTFSSYAMSWVRQAPGEGLEWVSSISGSGGSTLYADSVKGRFTISRDSSNNSLYLQMNSLRAEDTAVYYCAKARNNFFDYWGLGTLVTVSS
VL: EIVLTQSPGTLTLSPGERATLSCRASRSILTSLAWYQQRPGQTPRLLIYGANSRATGIPDRFSGSGSGTEFTLTISSLQSEDFAVYYCQQYYDWLTITFGGGTKVEIK
  binding: binds

B11: 40511p1.2.G10 (scFv, V domains shown)
VH: DVQLVESGGGVVRPGESLRLSCAASGFTFSNYAMNWVRQAPGEGLEWVSRINYKGYNITYYADSVKGRFTISRDNSKNTLYLQMNSLRAEDTAVYYCAKSGSNSNNFFDYWGLGTLVTVSS
VL: EIVLTQSPGTLSLSPGERATLSCRASQTVGSKLAWYQQKPGQAPRLLIYGASTRATDIPDRFSGSGSGTEFTLTISSLQSEDFAVYYCQQYINWPPLSFGGGTKVEIK
  binding: binds

B12: 40579p1.B8 (scFv, V domains shown)
VH: EVQLLESGGGLVQPGGSLRLSCAASGFTFSDYYMSWVRQAPGKGLEWVSGISMSSTIYYADSVKGRFTISRDNSKNTLYLQMNSLRAEDTAVYYCARHRSPYQYRSMDVWGQGTTVTVSS
VL: EIVLTQSPGTLSLSPGERATLSCRASQSVNSKLAWYQQKPGQPPSLLIYDASRRATGIPDRFSGSGSGTEFTLTISSLQSEDFAVYYCQQYNNWPPLTFGGGTKVEIK
  binding: binds

B13: 40579p1.C2 (scFv, V domains shown)
VH: EVQLLESGGDLVQPGGSLRLSCAASGFNFSSYWMSWVRQAPGKGLEWVSGISISYGGNAYYADSVKGRFTVSRDNSKNTLYLQMNSLRAEDTAVYYCGRDRSPYQYRSMDVWGQGTTVTVSS
VL: EIVLTQSPATLSVSPGERATFSCRASQTIGNKLAWYQQKPGQAPRLLIFSASTRATDIPDRFSGSGSGTDFTLTISSLQSEDFAVYYCQQYNNWPPLTFGGGTKVEIK
  binding: binds

B14: 40579p1.E5 (scFv, V domains shown)
VH: EVQLLESGGGLVQPGGSLRLSCAASGFTFSDDWMTWVRQAPGKGLEWVSAINWNGNSTHYADSVKGRFTVSRDNSKNTLYLQMNSLRAEDTAVYYCAKSRTTYYSSMDVWGQGTTVTVSS
VL: EIVLTQSPGTLSLSPGERATLSCRASQTVGSYLAWYQQKPGQAPRLLIYGASSRATGIPARFSGSGSGTDFTLTISSLQSEDFAVYYCQHYYDWPPYSFGGGTKVEIK
  binding: binds

B15: 40579p1.F7 (scFv, V domains shown)
VH: EVQLLESGGGLVQPGGSLRLSCAASGFTFSDYYMSWVRQAPGKGLEWVSGISISYGGNAYYADSVKGRFTVSRDNSKNTLYLQMNSLRAEDTAVYYCGRDRSPYQYRSMDVWGQGTTVTVSS
VL: EIVLTQSPGTLSLSPGERATLTCRASQSVGDFLAWYQQKPGQAPRLLIYGASTRAAGIPARFRGSGSGTDFTLTISSLQSEDFAVYYCQQYKNWPPLTFGGGTKVEIK
  binding: binds

B16: 40579p1.H6 (scFv, V domains shown)
VH: EVQLLESGGGLVQPGGSLRLSCAASGFTVNNAWMSWVRQAPGKGLEWVSAISYGGSIYYADSVKGRFTISRDNSKNTLYLQMNSLRAEDTAVYYCAKHRSTTYNGMDVWGQGTTVTVSS
VL: EIVLTQSPGTLSLSPGERATLSCRASQSVGSFLAWYQQKPGQAPRLLIYGANTRAAGIPDRFRGSGNGTDFTLTISSLQSEDFAVYYCQQYYDWPPLTFGGGTKVEIK
  binding: binds

B17: 40633p1.1.A11 (scFv, V domains shown)
VH: EVQLLESGGDLVQPGGSLRLSCAASGFTFNTYWMNWVRQAPGKGLEWVAGINSKGGVTYYADSVKGRFTISRDNSKNTLYLQMNSLRAEDTAVYYCADWNDYDIMDVWGQGTTVTVSS
VL: QSVLTQPPSASGTPGQTITISCSGSSSNVGRRTVNWYQQLPGTAPKLLIYTNAQRPSGVPDRFSGSKSGTSASLAISGLQSEDEADYYCATWDDSLNAWVFGGGTKLTVL
  binding: binds

B18: 40633p1.1.A6 (scFv, V domains shown)
VH: EVQLLESGGGLVQPGGSLRLSCAASGFSFSNYDMSWVRQAPGKGLEWVAGIRSGSRTYYADSVKGRFTISRDNSKNTLYLQMNSLRAEDTATYYCGRYFNMDVWGQGTTVTVSS
VL: QSVLTQPPSASGTPGQRVTISCSGSTFNIGTNLVHWYQQLPGTAPKLLIYLTDRRPSGVPDRFSGSKSGTSASLAISGLQSEDEANYYCATWDDSLNSFLFGGGTKLTVL
  binding: binds

B19: 40633p1.1.A7 (scFv, V domains shown)
VH: EVQLLESGGGLVQPGGSLRLSCAASGFTVSYYGMSWVRQAPGKGLEWVSAIKQDGSEKYYADSVKGRFTISRDNSKNTLYLQMNSLRAEDTAVYYCARHWNDYSNAMNVWGQGTTVTVSS
VL: QSVLTQPPSASGTPGQRVTISCSGSTSNIGRESVYWYQQLPGTAPKLLIYTIDQRPSGVPDRFSGSKSGTSASLAISGLQSEDEAVYYCASWDASLNGWVFGGGTKLTVL
  binding: binds

B20: 40633p1.1.B12 (scFv, V domains shown)
VH: EVQLLESGGGLLQPGGSLRLSCAASGFSFSSYGMHWVRQAPGKGLEWVAAINSDGSRIYYADSVKGRFTISRDNSKNTLYLQMNSLRAEDTAVYYCTKYYYHYAMDVWGQGTTVTVSS
VL: QSVLTQPPSASGTPGQRVTISCSGSRSDIGATTVNWYQQLPGTAPKLLTYQSHLRPSGVPDRFSGSKSGTSASLAISGLQSEDEADYYCASWDASLNTWVFGGGTKLTVL
  binding: binds

B21: 40633p1.1.B3 (scFv, V domains shown)
VH: EVQLLESGGGLVQPGGSLRLSCAASGFTVSYYGMSWVRQAPGKGLEWVSAIKQDGSEKYYADSVKGRFTISRDNSKNTLYLQMNSLRAEDTAVYYCARHWNDYSNAMNVWGQGTTVTVSS
VL: QSVLTQPPSASGTPGQRVTISCSGSTSNIGRESVYWYQQLPGTAPKLLIYTIDQRPSGVPDRFSGSKSGTSASLAISGLQSEDEADYYCGTWDDSLNAWVFGGGTKLTVL
  binding: binds

B22: 40633p1.1.D11 (scFv, V domains shown)
VH: EVQLLESGGGLVQPGGSLRLSCAASGFTFRSYAMSWVRQAPGKGLEWVAYIGSSGGTTYYADSVKGRFTISRDNSKNTLYLQMNSLRAEDTAVYYCVKESYYYMDVWGQGTTVTVSS
VL: QSVLTQPPSASGTPGQRVTISCSATISNIDINRVSWYQQLPGTAPKLLIFNSQRPSGVPDRFSGSKSGTSASLAISGLQSEDEADYYCATWDDSLNSWVFGGGTKLTVL
  binding: binds
